Drawing on paper doi:10.1101/2022.08.31.505651, this text covers binding for one molecule.

Assay [1] deals with T1, 3xFLAG-NEK1 R261H (human) (UniProt Q96PY6).
T1 sequence: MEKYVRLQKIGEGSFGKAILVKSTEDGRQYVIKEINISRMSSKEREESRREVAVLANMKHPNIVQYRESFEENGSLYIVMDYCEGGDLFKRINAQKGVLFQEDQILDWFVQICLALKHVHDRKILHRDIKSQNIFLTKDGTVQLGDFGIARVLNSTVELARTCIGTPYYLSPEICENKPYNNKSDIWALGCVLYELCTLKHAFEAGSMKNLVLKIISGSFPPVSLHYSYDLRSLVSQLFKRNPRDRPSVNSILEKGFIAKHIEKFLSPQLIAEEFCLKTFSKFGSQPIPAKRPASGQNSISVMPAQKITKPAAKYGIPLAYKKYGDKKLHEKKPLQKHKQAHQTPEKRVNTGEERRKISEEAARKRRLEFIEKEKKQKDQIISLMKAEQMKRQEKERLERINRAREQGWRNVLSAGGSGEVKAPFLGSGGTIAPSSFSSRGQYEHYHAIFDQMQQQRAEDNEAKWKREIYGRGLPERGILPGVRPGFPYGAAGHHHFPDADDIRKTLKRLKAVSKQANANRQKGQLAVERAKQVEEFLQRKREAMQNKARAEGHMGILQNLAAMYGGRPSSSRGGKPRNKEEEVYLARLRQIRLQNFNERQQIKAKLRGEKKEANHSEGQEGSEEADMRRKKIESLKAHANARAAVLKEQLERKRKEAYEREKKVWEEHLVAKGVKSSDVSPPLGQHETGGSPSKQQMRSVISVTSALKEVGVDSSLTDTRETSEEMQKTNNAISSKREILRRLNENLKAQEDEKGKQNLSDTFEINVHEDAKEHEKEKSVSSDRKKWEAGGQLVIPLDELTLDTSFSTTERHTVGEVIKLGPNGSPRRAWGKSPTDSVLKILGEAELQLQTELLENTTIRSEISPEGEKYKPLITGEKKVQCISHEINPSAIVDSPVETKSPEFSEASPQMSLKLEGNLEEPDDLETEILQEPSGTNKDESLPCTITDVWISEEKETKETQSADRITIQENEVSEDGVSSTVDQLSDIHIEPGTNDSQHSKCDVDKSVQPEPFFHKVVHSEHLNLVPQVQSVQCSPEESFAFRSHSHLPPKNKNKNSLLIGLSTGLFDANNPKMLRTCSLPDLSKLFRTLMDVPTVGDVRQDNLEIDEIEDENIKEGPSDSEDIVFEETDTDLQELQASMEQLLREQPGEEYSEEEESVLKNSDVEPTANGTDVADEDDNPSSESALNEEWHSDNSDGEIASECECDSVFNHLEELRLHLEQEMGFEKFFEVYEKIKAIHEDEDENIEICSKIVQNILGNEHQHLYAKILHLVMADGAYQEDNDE
The assay can be described thus: co-IP.

Assay [2] addresses T2, 3xFLAG-NEK1 full length (1-1286) (human) (UniProt Q96PY6).
T2 sequence: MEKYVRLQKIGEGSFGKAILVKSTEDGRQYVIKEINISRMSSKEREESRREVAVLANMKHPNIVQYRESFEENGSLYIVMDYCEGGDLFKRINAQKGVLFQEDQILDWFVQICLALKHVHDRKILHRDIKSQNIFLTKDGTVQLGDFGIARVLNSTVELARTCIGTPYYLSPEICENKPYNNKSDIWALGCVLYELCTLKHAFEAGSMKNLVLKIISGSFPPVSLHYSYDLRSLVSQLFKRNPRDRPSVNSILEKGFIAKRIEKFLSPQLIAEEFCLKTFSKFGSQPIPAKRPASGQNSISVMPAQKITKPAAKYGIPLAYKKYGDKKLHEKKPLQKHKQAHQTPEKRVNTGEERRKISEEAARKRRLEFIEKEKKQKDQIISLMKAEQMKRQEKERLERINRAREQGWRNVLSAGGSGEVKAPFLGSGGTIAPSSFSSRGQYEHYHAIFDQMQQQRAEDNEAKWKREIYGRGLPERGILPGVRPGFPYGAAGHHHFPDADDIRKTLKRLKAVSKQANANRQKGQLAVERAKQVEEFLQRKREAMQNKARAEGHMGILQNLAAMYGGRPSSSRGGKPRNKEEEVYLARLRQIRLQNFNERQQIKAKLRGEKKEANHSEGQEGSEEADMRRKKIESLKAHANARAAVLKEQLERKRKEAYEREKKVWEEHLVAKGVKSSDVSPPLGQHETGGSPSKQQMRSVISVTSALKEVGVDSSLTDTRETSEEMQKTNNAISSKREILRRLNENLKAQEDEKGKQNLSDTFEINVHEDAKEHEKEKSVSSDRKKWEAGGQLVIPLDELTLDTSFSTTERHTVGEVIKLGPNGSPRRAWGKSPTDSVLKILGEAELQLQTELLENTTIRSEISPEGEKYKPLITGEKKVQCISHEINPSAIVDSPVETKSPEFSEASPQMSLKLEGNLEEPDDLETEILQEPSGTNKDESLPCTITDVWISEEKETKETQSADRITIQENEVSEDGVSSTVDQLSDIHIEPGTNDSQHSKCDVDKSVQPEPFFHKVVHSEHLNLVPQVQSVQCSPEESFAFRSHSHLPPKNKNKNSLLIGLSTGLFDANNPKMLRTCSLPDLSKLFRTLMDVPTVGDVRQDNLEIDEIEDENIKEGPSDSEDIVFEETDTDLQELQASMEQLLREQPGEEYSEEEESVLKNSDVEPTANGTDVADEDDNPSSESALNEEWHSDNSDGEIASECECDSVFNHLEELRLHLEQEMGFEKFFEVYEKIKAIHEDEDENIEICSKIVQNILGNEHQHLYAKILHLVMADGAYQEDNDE
Kind of assay: co-IP.

No constants are given. Whether binding was seen depends on the method and setting. In cells and extracts the contact can be indirect. Some binding calls cover weakened binding; strength is not graded here. Tags and fused reporters may be left off the sequences shown.

B1: 3xHA-C21ORF2 wild type (protein, UniProt O43822-1 1-256)
chain: MKLTRKMVLTRAKASELHSVRKLNCWGSRLTDISICQEMPSLEVITLSVNSISTLEPVSRCQRLSELYLRRNRIPSLAELFYLKGLPRLRVLWLAENPCCGTSPHRYRMTVLRTLPRLQKLDNQAVTEEELSRALSEGEEITAAPEREGTGHGGPKLCCTLSSLSSAAETGRDPLDSEEEATSGAQDERGLKPPSRGQFPSLSARDASSSHRGRNVLTAILLLLRELDAEGLEAVQQTVGSRLQALRGEEVQEHAE
As to B1, the binding result in assay [1] and in assay [2] was “binds” in each case.
